{
  "source": "the supplement of paper PMC5949888",
  "note": "Most values lie at the floor of the assay. Slopes are relative: functional sequences can read slightly below zero.",
  "data": [
    {"tested_on": "Saccharomyces cerevisiae PS128 hsf1 delta, HSF1(1-493) fusion", "assay": "growth estimate (transactivation domain function in HSF1 fusion, heat-shock survival) (a.u. (slope of normalised read count over time)); higher = stronger growth at 37°C, i.e. more transactivation activity", "details": "library: random library", "experimental": "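Random 60-nt DNA library encoding peptides of up to 20 aa, fused to the C-terminus of yeast HSF1 residues 1-493 (C-terminal TAD deleted) and expressed from the native HSF1 promoter on a CEN plasmid in hsf1-deleted S. cerevisiae PS128. Cells were selected at 37°C on -trp 5-FOA plates for 0, 2, 4, 6 and 8 days and amplicons were sequenced. Growth estimate is the slope of a robust linear fit of total-sum-normalised read counts (normalised to the first time point) over time, using at least 2 replicates. Sequences are classed functional (TAD activity) above a threshold of -0.13, set from stop-codon control sequences.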", "values": [
      {"substance": "YLASSRTLTRREF", "growth estimate": -0.246},
      {"substance": "PRSPFKGGFGIRRRSATC", "growth estimate": "< -0.25"},
      {"substance": "YRSVLSCTPIVLETRGSWVA", "growth estimate": "< -0.25"},
      {"substance": "ECVV", "growth estimate": "< -0.25"},
      {"substance": "KKAVHGGPRSVKSAIPVGRQ", "growth estimate": "< -0.25"},
      {"substance": "HKGEDLTSEPRGFRSDWARA", "growth estimate": "< -0.25"},
      {"substance": "SEFLQNKGSILLARVGEKSP", "growth estimate": "< -0.25"},
      {"substance": "LDF", "growth estimate": "< -0.25"},
      {"substance": "FWEGFVLPRFCCRPSRWAKV", "growth estimate": "< -0.25"},
      {"substance": "HVLGTMSGVEGCSSRLGYAS", "growth estimate": "< -0.25"},
      {"substance": "RTLRNCKGCANLAIWTSFDI", "growth estimate": "< -0.25"},
      {"substance": "LSPSVLAIRRWARFKIYP", "growth estimate": "< -0.25"},
      {"substance": "LGCYSVDSESKCLSRRHPLA", "growth estimate": "< -0.25"},
      {"substance": "DGTPRTSTRWSEVVA", "growth estimate": "< -0.25"},
      {"substance": "HVLRVSEFPGATGRRQRPNP", "growth estimate": "< -0.25"},
      {"substance": "RKSAISGYKVDIGR", "growth estimate": "< -0.25"},
      {"substance": "VSLKL", "growth estimate": "< -0.25"},
      {"substance": "ILPVILASYTITYP", "growth estimate": "< -0.25"},
      {"substance": "SGTPVIYWSAKVVRRSMERR", "growth estimate": "< -0.25"},
      {"substance": "IQLSTRECVRAGAMR", "growth estimate": "< -0.25"},
      {"substance": "KCPSV", "growth estimate": "< -0.25"},
      {"substance": "LQYKVRWGLKLRCGEIVTIR", "growth estimate": "< -0.25"},
      {"substance": "ASGSLYQSTRTSVKGVYGSS", "growth estimate": "< -0.25"},
      {"substance": "CFFTSWLRRVLVVNPTFRPR", "growth estimate": "< -0.25"},
      {"substance": "SREVGFVKLQNGKY", "growth estimate": -0.214},
      {"substance": "YGISLDIYSGHGLC", "growth estimate": "< -0.25"},
      {"substance": "DTTSQRLSTPYTLPEATLPQ", "growth estimate": -0.237},
      {"substance": "RQPVRLV", "growth estimate": "< -0.25"},
      {"substance": "TREISGAGRGMELVIMQAHR", "growth estimate": "< -0.25"},
      {"substance": "ASGLVYPDGVILGLVHTQSM", "growth estimate": "< -0.25"},
      {"substance": "VLVSPASMCWQANETPAQRR", "growth estimate": "< -0.25"},
      {"substance": "TGCITWNVRAQVPRSRDSFW", "growth estimate": "< -0.25"},
      {"substance": "VLVEFRVEGAIVRQ", "growth estimate": "< -0.25"},
      {"substance": "EPT", "growth estimate": "< -0.25"},
      {"substance": "RGEGNESWYAE", "growth estimate": 0.16},
      {"substance": "WVSNVRP", "growth estimate": "< -0.25"},
      {"substance": "VTFRNNGATLLVRFA", "growth estimate": "< -0.25"},
      {"substance": "QFTGAYPRGSKVTVTSVA", "growth estimate": "< -0.25"},
      {"substance": "FTIAAYFWEDCCCQSSSGQA", "growth estimate": "< -0.25"},
      {"substance": "NKREPVISEWSSGRDRRSRN", "growth estimate": "< -0.25"},
      {"substance": "HTSRYGSRFGDVHEQQSLRA", "growth estimate": "< -0.25"},
      {"substance": "GQLNSLYGLSTLLSTRFGAI", "growth estimate": "< -0.25"},
      {"substance": "TSEIRWMNGELAGKVSSITS", "growth estimate": "< -0.25"},
      {"substance": "IDRS", "growth estimate": "< -0.25"},
      {"substance": "PSVGIPV", "growth estimate": "< -0.25"},
      {"substance": "IWHVLCVSSPSS", "growth estimate": "< -0.25"},
      {"substance": "NDCGGRTRKLRG", "growth estimate": -0.245},
      {"substance": "AGCVTLGRGKGTQACRNTPC", "growth estimate": "< -0.25"},
      {"substance": "NRYPLLVWHIYWIPGLCFGS", "growth estimate": "< -0.25"},
      {"substance": "VREGYMPGKQA", "growth estimate": "< -0.25"},
      {"substance": "DKPWDPLSRHLPGLLDGGQE", "growth estimate": "< -0.25"},
      {"substance": "AKFVATTVVDTLYLTLSWRS", "growth estimate": "< -0.25"},
      {"substance": "QVSAWYRLVVEMRVHSDSPR", "growth estimate": "< -0.25"},
      {"substance": "CRLK", "growth estimate": "< -0.25"},
      {"substance": "ASLELPVRSGTKPMIC", "growth estimate": "< -0.25"},
      {"substance": "DVVQSFAPWGCDFSGVGSGA", "growth estimate": -0.225},
      {"substance": "MLILITHGFAV", "growth estimate": "< -0.25"},
      {"substance": "VQCGFGLQKCIRHSD", "growth estimate": "< -0.25"},
      {"substance": "HRRQVWFVSPEC", "growth estimate": "< -0.25"},
      {"substance": "AAG", "growth estimate": "< -0.25"},
      {"substance": "YLHSPVRLRKVNLRWRSTVE", "growth estimate": "< -0.25"},
      {"substance": "VAFGSAVQLGFLALCWSEGH", "growth estimate": "< -0.25"},
      {"substance": "MLINWEYVRIMPYGFPLFLD", "growth estimate": "< -0.25"},
      {"substance": "RVSAASQVAPR", "growth estimate": "< -0.25"},
      {"substance": "DRRNW", "growth estimate": "< -0.25"},
      {"substance": "GSIGTGQWNHECHRGYSHVA", "growth estimate": "< -0.25"},
      {"substance": "ETKL", "growth estimate": "< -0.25"},
      {"substance": "QPCHAACNGIGTAKRVPDNG", "growth estimate": "< -0.25"},
      {"substance": "SYFRIS", "growth estimate": "< -0.25"},
      {"substance": "DKARVDPAARRQVFIQQMVW", "growth estimate": "< -0.25"},
      {"substance": "EFSLSGVGASRQLEVTAGRF", "growth estimate": "< -0.25"},
      {"substance": "YDDRHKDESSTPTLTVRTRC", "growth estimate": "< -0.25"},
      {"substance": "RRNSGRTR", "growth estimate": "< -0.25"},
      {"substance": "NLRLDPI", "growth estimate": "< -0.25"},
      {"substance": "SMTQ", "growth estimate": "< -0.25"},
      {"substance": "SSRCLYQRSREMFGISDRVA", "growth estimate": "< -0.25"},
      {"substance": "LEVLPRVSSKDRESSYTGA", "growth estimate": "< -0.25"},
      {"substance": "DSASFLQTMW", "growth estimate": 19.8},
      {"substance": "QCWDFSASPR", "growth estimate": "< -0.25"},
      {"substance": "PNKYAGEHPLKSSWLYNPHG", "growth estimate": "< -0.25"},
      {"substance": "KLALVTIT", "growth estimate": "< -0.25"},
      {"substance": "STAGIVAQLLRS", "growth estimate": "< -0.25"},
      {"substance": "GTSGSMDIQSILFNLLH", "growth estimate": "< -0.25"},
      {"substance": "WGKAAAGASIRKDKRWG", "growth estimate": "< -0.25"},
      {"substance": "PGSCYNCVATYPGG", "growth estimate": "< -0.25"},
      {"substance": "CDQTPTGGAS", "growth estimate": "< -0.25"},
      {"substance": "HWGV", "growth estimate": "< -0.25"},
      {"substance": "TSPSLQRASDISG", "growth estimate": "< -0.25"},
      {"substance": "LGSKPVIRKRYHQRCVPLLG", "growth estimate": "< -0.25"},
      {"substance": "RAVIVVTVGADVVESGYPGA", "growth estimate": "< -0.25"},
      {"substance": "LCFTRQGSGRSPKVGSQTSA", "growth estimate": "< -0.25"},
      {"substance": "TSHALAGDLALERECMVLAE", "growth estimate": "< -0.25"},
      {"substance": "ERSCYLASARPYYLVRTSVT", "growth estimate": "< -0.25"},
      {"substance": "FAHVPILCPTVTGANIRVL", "growth estimate": "< -0.25"}
    ]}
  ]
}
